This is an account of results in doi:10.1101/2023.12.13.571441.

Results are given in words; binding and its absence hold for the method and conditions named. A result given as binding can be weak or reduced; the word gives no strength.

This test addresses T1, CviR (Chromobacterium violaceum ATCC 12472) (UniProt Q7NQP7).
T1 sequence: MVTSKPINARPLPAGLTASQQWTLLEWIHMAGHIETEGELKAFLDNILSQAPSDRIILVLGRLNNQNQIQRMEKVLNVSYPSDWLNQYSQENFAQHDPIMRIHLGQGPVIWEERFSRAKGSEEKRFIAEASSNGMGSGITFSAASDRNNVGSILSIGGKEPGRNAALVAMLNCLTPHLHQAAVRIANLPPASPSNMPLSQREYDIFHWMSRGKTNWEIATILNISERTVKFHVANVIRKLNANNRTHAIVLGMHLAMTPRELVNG
Description: two-hybrid.

For the substance “VioS (Chromobacterium violaceum ATCC 12472)”, the binding result is recorded as “binds”.
